Experimental data as given in publication PMC12090556.
Results are given in words; binding and its absence hold for the method and conditions named. In cells and extracts the contact can be indirect. Here binding means that the protein was enriched with, or labelled near, the bait; the list need not be complete. Sequences can lack the tags named with a protein. Each block holds one molecule with its values, some of them ahead of it.

Chains of the proteins cited; added tags and fusions are not shown. Residues count along the entry.
UniProt P08581, residues 25-1390: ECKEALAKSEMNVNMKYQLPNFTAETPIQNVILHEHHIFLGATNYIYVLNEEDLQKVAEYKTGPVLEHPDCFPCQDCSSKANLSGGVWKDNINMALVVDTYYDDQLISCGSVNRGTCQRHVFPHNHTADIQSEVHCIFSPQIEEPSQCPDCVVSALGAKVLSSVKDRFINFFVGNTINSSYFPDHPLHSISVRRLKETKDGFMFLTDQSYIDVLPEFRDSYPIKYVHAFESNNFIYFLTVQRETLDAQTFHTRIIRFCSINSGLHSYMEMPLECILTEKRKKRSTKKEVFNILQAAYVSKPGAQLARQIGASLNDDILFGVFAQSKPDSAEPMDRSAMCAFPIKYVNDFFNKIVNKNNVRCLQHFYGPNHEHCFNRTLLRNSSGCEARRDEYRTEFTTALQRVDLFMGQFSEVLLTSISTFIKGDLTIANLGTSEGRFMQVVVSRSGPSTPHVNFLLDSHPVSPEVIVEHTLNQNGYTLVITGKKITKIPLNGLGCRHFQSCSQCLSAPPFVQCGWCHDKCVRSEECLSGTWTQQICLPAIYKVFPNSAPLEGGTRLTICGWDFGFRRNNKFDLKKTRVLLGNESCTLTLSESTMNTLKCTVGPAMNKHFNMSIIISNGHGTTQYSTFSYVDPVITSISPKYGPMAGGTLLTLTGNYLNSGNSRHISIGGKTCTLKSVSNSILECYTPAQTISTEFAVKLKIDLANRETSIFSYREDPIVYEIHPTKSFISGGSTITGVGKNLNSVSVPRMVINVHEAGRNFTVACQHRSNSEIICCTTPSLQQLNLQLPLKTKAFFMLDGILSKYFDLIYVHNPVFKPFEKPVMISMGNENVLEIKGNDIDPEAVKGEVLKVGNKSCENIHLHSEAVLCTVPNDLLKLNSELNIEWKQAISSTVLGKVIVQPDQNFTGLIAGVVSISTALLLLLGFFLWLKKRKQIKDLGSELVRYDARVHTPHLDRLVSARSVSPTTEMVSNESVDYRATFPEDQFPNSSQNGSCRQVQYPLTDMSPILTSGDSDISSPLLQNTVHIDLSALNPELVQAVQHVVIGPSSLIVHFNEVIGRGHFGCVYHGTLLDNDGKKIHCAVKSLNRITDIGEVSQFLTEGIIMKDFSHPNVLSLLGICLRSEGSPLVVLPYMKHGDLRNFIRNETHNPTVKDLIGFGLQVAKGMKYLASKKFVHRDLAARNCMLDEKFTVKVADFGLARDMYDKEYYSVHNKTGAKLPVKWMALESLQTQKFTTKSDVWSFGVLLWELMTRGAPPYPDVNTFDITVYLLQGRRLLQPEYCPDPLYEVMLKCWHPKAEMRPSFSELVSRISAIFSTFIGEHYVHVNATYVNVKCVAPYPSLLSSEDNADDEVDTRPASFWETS

Target: T1, HHLA2-HA (UniProt Q9UM44)
T1 sequence (chain, glycosylated (N-linked; sites not named)): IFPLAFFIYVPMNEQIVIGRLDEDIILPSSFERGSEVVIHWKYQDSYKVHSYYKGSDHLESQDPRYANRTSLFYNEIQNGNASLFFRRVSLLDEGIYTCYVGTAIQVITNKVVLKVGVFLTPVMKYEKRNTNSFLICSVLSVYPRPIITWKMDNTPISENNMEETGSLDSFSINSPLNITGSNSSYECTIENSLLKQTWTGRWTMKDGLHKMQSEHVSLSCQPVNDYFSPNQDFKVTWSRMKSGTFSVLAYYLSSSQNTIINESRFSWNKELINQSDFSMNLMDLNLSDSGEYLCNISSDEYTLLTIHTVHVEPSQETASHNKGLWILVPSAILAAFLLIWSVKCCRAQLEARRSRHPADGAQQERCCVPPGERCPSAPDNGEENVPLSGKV
Assay: affinity purification with mass spectrometry; anti-HA immunoprecipitates from HepG2-HHLA2-HA against HepG2-Vec cells; label-free, semi-quantitative mass spectrometry

binding: binds
Molecule: c-Met (from UniProt P08581 25-1390) (receptor)

binding: binds
B1: STT3A (enzyme, UniProt P46977 1-705)
chain: MTKFGFLRLSYEKQDTLLKLLILSMAAVLSFSTRLFAVLRFESVIHEFDPYFNYRTTRFLAEEGFYKFHNWFDDRAWYPLGRIIGGTIYPGLMITSAAIYHVLHFFHITIDIRNVCVFLAPLFSSFTTIVTYHLTKELKDAGAGLLAAAMIAVVPGYISRSVAGSYDNEGIAIFCMLLTYYMWIKAVKTGSICWAAKCALAYFYMVSSWGGYVFLINLIPLHVLVLMLTGRFSHRIYVAYCTVYCLGTILSMQISFVGFQPVLSSEHMAAFGVFGLCQIHAFVDYLRSKLNPQQFEVLFRSVISLVGFVLLTVGALLMLTGKISPWTGRFYSLLDPSYAKNNIPIIASVSEHQPTTWSSYYFDLQLLVFMFPVGLYYCFSNLSDARIFIIMYGVTSMYFSAVMVRLMLVLAPVMCILSGIGVSQVLSTYMKNLDISRPDKKSKKQQDSTYPIKNEVASGMILVMAFFLITYTFHSTWVTSEAYSSPSIVLSARGGDGSRIIFDDFREAYYWLRHNTPEDAKVMSWWDYGYQITAMANRTILVDNNTWNNTHISRVGQAMASTEEKAYEIMRELDVSYVLVIFGGLTGYSSDDINKFLWMVRIGGSTDTGKHIKENDYYTPTGEFRVDREGSPVLLNCLMYKMCYYRFGQVYTEAKRPPGFDRVRNAEIGNKDFELDVLEEAYTTEHWLVRIYKVKDLDNRGLSRT
